Test results taken from PMC9377798.
These are yes or no findings as the source states them, for the method shown. Binding seen in cells or lysates may run through a third protein. Some entries that bind do so weakly or less than the wild type.

The chains behind the UniProt entries cited, without tags or fusion partners.
UniProt Q99LZ3: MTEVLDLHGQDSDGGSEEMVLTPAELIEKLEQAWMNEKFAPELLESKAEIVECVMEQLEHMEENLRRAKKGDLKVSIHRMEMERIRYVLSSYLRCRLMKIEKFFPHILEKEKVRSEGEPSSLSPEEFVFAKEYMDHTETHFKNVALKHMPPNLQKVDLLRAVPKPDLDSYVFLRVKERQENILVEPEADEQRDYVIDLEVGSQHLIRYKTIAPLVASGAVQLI
UniProt Q61881: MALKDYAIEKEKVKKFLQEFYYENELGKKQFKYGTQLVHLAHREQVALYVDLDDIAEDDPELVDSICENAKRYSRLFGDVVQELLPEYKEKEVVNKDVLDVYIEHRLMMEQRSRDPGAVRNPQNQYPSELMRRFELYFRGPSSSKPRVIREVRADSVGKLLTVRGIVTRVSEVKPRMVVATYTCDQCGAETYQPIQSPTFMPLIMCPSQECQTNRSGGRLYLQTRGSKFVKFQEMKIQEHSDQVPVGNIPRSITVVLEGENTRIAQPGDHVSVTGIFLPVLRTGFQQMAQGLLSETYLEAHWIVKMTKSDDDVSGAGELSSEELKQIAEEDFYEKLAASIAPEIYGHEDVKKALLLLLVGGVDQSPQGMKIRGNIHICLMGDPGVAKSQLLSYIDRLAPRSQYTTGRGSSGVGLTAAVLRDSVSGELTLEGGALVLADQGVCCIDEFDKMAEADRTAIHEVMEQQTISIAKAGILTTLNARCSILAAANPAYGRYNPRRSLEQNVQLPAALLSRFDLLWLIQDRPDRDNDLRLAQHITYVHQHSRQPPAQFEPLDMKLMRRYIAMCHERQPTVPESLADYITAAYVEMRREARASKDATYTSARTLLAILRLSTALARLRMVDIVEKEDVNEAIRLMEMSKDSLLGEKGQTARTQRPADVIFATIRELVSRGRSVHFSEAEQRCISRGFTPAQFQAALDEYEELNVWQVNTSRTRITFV

Biological target: GFP-tagged GINS4/SLD5 (mouse) (mouse (endogenous in ES cells)) (UniProt Q99LZ3)
Experiment: co-IP; GFP-Trap agarose on extracts of mouse ES cells expressing GFP-SLD5 (control, FAF1∆, UBXN7∆, FAF1∆ UBXN7∆; with or without 5 µM CB-5083 for 3 hr); immunoblot

- binding: binds
Substance: ubiquitylated CMG-MCM7 (mouse) (from UniProt Q61881 1-719)
